Data as given in PubChem BioAssay AID1259308 (NCATS, 2017)

Aim: 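Genes whose loss raises luciferase production in HEK293 cells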 (primary screen)
Cell system: human HEK293 embryonic kidney cells stably expressing firefly luciferase (HEK-CMV-Luc2-Hygro)
Reagent: single siRNA against human genes, 0.8 pmol siRNA per well
Time to read-out: 72 h
Measured: 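Luciferase light (ONE-Glo) measured on one replicate plate set and viability (CellTiter-Glo) on the other, scaled to a negative control siRNA, with robust z-scores and luciferase per cell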
Reading the numbers: total luciferase, z-score and total luciferase, % of control: higher = more reporter protein produced; luciferase per cell, z-score: higher = more reporter output per viable cell
Rule for the call: 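Active when the median/MAD z-score for overall luciferase is greater than 3; a gene was taken forward for validation with new siRNAs if at least two of its three siRNAs passed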
Calls: active = raised luciferase; inactive = no rise
Here is an unselected part of about 59,000 deposited reagents. About 1,510 of all reagents (2.6%) count as active. 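Calls use total luciferase alone and ignore viability, so some active siRNAs may act by altering cell number.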 Reagents against one gene are numbered here. Not all columns of the deposit are shown. No sequences are given here.

gene | reagent | total luciferase, z-score | total luciferase, % of control | luciferase per cell, z-score | outcome
KRTAP27-1 | 1 | 0.0135 | 82.2 | 0.492 | inactive
KRTAP27-1 | 2 | 1.23 | 106 | 1.37 | inactive
KRTAP27-1 | 3 | -0.633 | 69.3 | -0.0865 | inactive
EIF4EBP1 | 1 | -0.0275 | 81.3 | -0.197 | inactive
EIF4EBP1 | 2 | -1.37 | 54.7 | -1.61 | inactive
EIF4EBP1 | 3 | 1.09 | 104 | 1.58 | inactive
SGSM3 | 1 | 0.2 | 85.9 | -0.0469 | inactive
SGSM3 | 2 | 0.0207 | 82.3 | 1.29 | inactive
SGSM3 | 3 | 0.274 | 87.3 | -0.242 | inactive
PSMB5 | 1 | 0.278 | 87.4 | 2.05 | inactive
PSMB5 | 2 | -0.26 | 76.7 | 1.43 | inactive
PSMB5 | 3 | -0.0673 | 80.5 | 2.52 | inactive
GMPS | 1 | -0.707 | 67.8 | -1.14 | inactive
GMPS | 2 | 3.27 | 147 | 2.07 | active
GMPS | 3 | -0.449 | 73 | 0.211 | inactive
INTS8 | 1 | 0.661 | 95 | 0.662 | inactive
INTS8 | 2 | 5.34 | 188 | 3.08 | active
INTS8 | 3 | 2.74 | 136 | 1.95 | inactive

Already shown: entries from further up.
gene | reagent | total luciferase, z-score | total luciferase, % of control | luciferase per cell, z-score | outcome
SGSM3 | 2 | 0.0207 | 82.3 | 1.29 | inactive
SGSM3 | 3 | 0.274 | 87.3 | -0.242 | inactive

The listing continues.
gene | reagent | total luciferase, z-score | total luciferase, % of control | luciferase per cell, z-score | outcome
PCDHGA11 | 1 | 0.626 | 94.3 | 0.259 | inactive
PCDHGA11 | 2 | 0.184 | 85.6 | 0.142 | inactive
PCDHGA11 | 3 | 0.855 | 98.9 | 0.428 | inactive
PDE1A | 1 | -0.604 | 69.9 | -0.802 | inactive
PDE1A | 2 | 1.12 | 104 | 0.0761 | inactive
PDE1A | 3 | -1.08 | 60.4 | -1.54 | inactive
TSKS | 1 | 0.979 | 101 | 2.64 | inactive
TSKS | 2 | 1.13 | 104 | 1.2 | inactive
TSKS | 3 | -0.862 | 64.7 | -1.03 | inactive
NAIF1 | 1 | -0.978 | 62.4 | -0.836 | inactive
NAIF1 | 2 | -0.295 | 76 | -0.328 | inactive
NAIF1 | 3 | 0.432 | 90.5 | 1.04 | inactive
CCER1 | 1 | -0.341 | 75.1 | 0.0182 | inactive
CCER1 | 2 | 0.362 | 89.1 | -0.174 | inactive
CCER1 | 3 | 0.206 | 86 | 0.511 | inactive
KAT5 | 1 | 5.98 | 201 | 4.39 | active
KAT5 | 2 | 0.806 | 97.9 | 0.594 | inactive
KAT5 | 3 | 3.65 | 155 | 3.35 | active
DPY19L2P2 | 1 | 0.193 | 85.7 | 1 | inactive
DPY19L2P2 | 2 | -0.529 | 71.4 | -0.268 | inactive
DPY19L2P2 | 3 | 1.6 | 114 | 0.283 | inactive
